Laboratory results from the supplement of paper PMC7666118.
This is one part of the list.

Amino acid sequences for entries named in this document (tags omitted). A change or cut given only in a name is not applied to a line headed by its entry.
UniProt Q9H9B4: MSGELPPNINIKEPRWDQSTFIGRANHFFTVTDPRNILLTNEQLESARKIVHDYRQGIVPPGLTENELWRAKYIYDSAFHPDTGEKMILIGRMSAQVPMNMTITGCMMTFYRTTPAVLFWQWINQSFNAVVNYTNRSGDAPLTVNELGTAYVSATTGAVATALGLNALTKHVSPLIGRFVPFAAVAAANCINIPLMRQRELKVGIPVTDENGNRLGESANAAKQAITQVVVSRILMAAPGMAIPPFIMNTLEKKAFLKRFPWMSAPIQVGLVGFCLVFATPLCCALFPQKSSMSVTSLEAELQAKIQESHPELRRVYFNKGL
UniProt P42285: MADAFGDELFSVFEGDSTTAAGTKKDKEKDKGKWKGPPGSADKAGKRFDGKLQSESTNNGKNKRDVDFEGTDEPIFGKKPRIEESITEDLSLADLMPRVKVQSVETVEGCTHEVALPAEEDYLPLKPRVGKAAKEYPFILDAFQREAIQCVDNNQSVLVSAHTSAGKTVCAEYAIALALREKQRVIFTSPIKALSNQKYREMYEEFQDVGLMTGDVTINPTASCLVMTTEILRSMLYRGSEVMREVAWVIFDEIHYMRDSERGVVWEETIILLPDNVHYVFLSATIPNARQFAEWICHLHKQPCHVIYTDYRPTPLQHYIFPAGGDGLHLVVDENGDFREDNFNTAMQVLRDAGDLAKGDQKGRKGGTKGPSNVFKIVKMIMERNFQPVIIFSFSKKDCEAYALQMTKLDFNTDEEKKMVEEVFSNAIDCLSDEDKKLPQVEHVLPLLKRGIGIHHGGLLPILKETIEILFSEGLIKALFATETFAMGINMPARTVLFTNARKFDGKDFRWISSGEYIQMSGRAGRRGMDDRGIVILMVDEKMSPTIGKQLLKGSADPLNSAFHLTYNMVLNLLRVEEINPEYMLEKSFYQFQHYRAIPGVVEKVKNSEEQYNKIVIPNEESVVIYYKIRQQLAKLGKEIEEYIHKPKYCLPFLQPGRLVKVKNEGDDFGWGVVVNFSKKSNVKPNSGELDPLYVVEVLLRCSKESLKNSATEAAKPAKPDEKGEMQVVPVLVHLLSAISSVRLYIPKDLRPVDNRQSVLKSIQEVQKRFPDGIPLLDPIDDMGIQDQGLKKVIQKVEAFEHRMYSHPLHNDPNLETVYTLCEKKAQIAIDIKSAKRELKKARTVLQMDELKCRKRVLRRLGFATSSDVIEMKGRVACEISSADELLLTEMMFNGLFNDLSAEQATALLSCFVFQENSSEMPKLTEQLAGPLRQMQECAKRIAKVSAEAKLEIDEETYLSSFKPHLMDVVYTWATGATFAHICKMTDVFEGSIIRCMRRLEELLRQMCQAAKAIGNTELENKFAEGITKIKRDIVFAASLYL
UniProt Q5MIZ7: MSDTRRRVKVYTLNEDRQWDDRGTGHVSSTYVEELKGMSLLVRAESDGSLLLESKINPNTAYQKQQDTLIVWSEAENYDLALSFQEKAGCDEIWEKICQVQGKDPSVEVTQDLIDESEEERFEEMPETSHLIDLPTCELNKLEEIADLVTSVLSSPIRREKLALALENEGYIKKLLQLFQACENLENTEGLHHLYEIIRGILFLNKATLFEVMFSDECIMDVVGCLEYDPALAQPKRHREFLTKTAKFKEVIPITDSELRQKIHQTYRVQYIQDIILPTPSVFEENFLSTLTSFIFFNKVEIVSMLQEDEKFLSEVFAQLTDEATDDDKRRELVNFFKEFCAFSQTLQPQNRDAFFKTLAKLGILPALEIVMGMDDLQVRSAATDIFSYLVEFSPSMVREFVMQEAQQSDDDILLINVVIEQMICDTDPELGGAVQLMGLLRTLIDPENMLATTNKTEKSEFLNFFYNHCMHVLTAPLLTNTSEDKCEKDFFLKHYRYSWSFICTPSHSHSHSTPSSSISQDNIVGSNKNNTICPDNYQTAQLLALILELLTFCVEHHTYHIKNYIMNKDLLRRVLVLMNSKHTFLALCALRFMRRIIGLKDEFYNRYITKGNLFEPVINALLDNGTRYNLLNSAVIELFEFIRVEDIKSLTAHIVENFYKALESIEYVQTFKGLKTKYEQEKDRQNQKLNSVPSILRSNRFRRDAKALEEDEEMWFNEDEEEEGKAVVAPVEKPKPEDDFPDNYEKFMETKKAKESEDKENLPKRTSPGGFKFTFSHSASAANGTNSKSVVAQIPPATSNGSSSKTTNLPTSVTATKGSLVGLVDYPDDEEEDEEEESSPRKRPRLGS
UniProt Q8NBW4: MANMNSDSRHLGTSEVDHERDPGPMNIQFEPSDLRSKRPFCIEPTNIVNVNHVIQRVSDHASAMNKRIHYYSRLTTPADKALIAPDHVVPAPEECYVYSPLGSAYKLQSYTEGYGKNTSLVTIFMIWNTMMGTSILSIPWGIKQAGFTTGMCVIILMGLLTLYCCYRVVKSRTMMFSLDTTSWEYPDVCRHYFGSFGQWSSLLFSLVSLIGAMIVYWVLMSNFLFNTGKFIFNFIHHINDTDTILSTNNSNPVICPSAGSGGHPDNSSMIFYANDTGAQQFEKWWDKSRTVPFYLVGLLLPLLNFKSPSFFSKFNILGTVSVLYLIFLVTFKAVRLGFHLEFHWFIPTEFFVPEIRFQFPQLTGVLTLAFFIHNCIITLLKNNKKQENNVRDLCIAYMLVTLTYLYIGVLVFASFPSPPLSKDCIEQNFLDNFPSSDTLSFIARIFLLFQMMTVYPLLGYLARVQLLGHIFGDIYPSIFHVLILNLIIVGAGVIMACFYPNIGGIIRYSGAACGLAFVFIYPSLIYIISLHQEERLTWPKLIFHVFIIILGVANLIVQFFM
UniProt O95258: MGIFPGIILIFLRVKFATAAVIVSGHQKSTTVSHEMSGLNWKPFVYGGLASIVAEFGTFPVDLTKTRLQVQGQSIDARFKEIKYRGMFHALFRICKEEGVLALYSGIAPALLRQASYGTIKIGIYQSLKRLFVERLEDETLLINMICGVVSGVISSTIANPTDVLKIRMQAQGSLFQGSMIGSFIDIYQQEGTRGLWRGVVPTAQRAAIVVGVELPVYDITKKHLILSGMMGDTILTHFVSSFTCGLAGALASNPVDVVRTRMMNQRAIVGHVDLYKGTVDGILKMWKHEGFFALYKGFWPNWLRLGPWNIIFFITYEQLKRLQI
UniProt Q8IXJ6: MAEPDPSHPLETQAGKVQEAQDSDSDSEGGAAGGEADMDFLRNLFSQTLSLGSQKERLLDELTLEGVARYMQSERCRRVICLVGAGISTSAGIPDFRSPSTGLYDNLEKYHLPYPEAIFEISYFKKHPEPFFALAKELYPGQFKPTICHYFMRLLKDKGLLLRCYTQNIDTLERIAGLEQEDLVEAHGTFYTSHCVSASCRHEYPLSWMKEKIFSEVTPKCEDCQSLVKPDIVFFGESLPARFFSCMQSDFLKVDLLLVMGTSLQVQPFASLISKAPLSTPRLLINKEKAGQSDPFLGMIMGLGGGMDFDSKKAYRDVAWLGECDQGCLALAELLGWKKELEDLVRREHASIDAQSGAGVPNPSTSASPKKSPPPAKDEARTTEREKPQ
UniProt Q8WU79: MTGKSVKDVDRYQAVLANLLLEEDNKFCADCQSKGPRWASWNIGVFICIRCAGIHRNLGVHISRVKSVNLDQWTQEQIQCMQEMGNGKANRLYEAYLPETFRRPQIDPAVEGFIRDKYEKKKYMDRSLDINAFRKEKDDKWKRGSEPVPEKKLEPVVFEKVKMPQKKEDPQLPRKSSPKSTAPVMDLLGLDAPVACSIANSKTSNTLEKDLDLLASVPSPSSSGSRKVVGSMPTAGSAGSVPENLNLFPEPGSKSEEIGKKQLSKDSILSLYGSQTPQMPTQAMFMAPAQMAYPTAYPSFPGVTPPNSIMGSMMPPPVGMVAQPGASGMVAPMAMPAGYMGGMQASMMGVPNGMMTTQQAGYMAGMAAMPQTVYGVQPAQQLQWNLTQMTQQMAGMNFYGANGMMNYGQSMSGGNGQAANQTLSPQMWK
UniProt Q9H5K3: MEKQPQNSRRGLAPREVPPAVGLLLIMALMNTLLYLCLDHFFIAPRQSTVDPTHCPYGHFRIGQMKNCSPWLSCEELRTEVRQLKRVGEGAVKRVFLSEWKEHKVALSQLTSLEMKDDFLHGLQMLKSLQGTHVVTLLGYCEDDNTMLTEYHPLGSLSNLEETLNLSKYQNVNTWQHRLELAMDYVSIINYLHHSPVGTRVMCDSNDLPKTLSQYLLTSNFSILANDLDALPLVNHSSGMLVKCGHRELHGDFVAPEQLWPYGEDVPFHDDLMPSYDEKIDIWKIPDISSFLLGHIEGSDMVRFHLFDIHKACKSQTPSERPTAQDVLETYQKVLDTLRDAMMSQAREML
UniProt Q8IY18: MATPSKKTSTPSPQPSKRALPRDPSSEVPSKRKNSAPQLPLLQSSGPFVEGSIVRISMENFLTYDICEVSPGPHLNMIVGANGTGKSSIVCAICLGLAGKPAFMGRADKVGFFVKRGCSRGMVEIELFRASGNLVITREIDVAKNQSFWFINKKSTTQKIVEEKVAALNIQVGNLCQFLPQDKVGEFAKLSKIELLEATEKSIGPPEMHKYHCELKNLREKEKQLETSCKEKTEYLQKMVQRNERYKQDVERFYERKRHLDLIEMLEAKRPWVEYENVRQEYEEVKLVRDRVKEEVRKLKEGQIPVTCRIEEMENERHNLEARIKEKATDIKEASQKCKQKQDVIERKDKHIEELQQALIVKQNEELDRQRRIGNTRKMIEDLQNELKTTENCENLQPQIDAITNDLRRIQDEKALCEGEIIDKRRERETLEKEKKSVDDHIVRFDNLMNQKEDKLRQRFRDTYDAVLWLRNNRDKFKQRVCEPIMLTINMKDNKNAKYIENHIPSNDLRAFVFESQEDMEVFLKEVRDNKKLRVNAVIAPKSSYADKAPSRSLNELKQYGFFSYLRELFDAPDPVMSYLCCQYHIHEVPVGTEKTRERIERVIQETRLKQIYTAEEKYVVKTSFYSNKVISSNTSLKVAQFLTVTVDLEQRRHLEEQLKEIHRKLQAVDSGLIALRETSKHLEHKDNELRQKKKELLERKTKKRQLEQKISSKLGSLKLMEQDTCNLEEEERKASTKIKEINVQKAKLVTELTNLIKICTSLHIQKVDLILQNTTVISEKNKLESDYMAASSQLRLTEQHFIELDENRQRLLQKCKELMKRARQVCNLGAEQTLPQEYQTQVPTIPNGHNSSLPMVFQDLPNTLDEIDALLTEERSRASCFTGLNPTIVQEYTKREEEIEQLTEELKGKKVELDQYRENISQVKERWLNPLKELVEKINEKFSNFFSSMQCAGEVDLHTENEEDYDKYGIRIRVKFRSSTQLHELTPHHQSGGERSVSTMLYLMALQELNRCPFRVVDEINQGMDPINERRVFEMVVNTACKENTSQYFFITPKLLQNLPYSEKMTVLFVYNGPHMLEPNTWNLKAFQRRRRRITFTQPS
UniProt Q01105, whole entry: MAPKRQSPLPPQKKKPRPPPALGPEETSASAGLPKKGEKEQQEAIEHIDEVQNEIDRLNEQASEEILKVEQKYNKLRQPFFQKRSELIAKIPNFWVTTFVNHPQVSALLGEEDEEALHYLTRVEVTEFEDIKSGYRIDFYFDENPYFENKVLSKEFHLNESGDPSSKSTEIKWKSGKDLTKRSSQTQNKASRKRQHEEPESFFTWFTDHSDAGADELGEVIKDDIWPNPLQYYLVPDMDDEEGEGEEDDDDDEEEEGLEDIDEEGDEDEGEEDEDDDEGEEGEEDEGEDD
UniProt Q9NRG4: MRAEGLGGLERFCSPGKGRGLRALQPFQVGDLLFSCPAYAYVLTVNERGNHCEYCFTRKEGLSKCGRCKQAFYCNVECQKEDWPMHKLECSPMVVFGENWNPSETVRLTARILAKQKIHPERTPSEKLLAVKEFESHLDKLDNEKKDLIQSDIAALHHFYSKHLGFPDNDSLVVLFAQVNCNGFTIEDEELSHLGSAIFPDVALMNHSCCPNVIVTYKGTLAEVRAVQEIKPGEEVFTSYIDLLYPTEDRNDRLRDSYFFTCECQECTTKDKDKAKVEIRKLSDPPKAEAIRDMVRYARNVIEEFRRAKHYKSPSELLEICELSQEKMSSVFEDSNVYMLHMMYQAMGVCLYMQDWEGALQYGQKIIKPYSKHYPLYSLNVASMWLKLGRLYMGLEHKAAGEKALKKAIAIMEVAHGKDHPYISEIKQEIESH
UniProt Q587I9: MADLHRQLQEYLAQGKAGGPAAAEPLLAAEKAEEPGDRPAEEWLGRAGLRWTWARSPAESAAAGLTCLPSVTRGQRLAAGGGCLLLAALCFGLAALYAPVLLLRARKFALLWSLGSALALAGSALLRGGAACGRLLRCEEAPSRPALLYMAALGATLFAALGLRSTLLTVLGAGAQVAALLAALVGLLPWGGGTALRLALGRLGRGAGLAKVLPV
UniProt Q9Y5W9: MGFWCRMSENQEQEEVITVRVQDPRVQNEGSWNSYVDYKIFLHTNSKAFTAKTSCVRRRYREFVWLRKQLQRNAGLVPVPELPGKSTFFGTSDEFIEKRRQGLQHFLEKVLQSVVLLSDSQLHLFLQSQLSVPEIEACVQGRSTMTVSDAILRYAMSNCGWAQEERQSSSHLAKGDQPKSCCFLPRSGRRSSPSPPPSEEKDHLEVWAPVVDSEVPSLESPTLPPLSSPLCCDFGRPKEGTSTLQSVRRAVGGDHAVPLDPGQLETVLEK

compound: COc1ccc(Cn2ccc3cc(C)c(C(=O)NO)cc32)cc1; test: dose-dependent thermal stabilisation call (2D-TPP, DLPTP, 10% FDR) (binary (1 = stabilised)); higher = stabilised by the compound; conditions: system: HL-60 intact cells; concentration range 0.04-10 µM
Protocol: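 2D thermal proteome profiling in intact HL-60 cells treated with BRD-3811 (0, 0.04, 0.29, 2, 10 uM) for 90 min at 37 C, then heated 3 min at one of 12 temperatures (42-63.9 C). Soluble protein was quantified by TMT10 MS. The value is the DLPTP call of the paper: dose-dependent thermal stabilisation over all temperatures at 10% FDR (F-test of a dose-response against a flat model); one experiment, one call per tested protein.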

Target	dose-dependent thermal stabilisation call
SFXN1 (UniProt Q9H9B4)	inactive: 0
SKIV2L2 (UniProt P42285)	inactive: 0
SMN1 (UniProt Q16637)	inactive: 0
SERPINB8 (UniProt P50452)	inactive: 0
SMARCD1 (UniProt Q96GM5)	inactive: 0
SMEK1 (UniProt Q6IN85)	inactive: 0
SMEK2 (UniProt Q5MIZ7)	inactive: 0
SNRPE (UniProt P62304)	inactive: 0
SLC35F2 (UniProt Q8IXU6)	inactive: 0
SLC12A6 (UniProt Q9UHW9)	inactive: 0
SMG5 (UniProt Q9UPR3)	inactive: 0
SLC38A9 (UniProt Q8NBW4)	inactive: 0
SLC25A22 (UniProt Q9H936)	inactive: 0
SLC25A14 (UniProt O95258)	inactive: 0
SIRT2 (UniProt Q8IXJ6)	inactive: 0
SNUPN (UniProt O95149)	inactive: 0
SLC33A1 (UniProt O00400)	inactive: 0
SMAP2 (UniProt Q8WU79)	inactive: 0
SNW1 (UniProt Q13573)	inactive: 0
SGK196 (UniProt Q9H5K3)	inactive: 0

Target	dose-dependent thermal stabilisation call
SLC39A11 (UniProt Q8N1S5)	inactive: 0
SFRS6 (UniProt Q13247)	inactive: 0
SFRS3 (UniProt P84103)	inactive: 0
SMC5 (UniProt Q8IY18)	inactive: 0
SETMAR (UniProt Q53H47)	inactive: 0
SMG7 (UniProt Q92540)	inactive: 0
SFRS8 (UniProt Q12872)	inactive: 0
SNRPA (UniProt P09012)	inactive: 0
SET (UniProt Q01105)	inactive: 0
SNX5 (UniProt Q9Y5X3)	inactive: 0
SMYD2 (UniProt Q9NRG4)	inactive: 0
SNX14 (UniProt Q9Y5W7)	inactive: 0
SFT2D3 (UniProt Q587I9)	inactive: 0
SNAPC5 (UniProt O75971)	inactive: 0
SNAP29 (UniProt O95721)	inactive: 0
SNX11 (UniProt Q9Y5W9)	inactive: 0
SLC25A5 (UniProt P05141)	inactive: 0
SETD1A (UniProt O15047)	inactive: 0
SLC24A6 (UniProt Q6J4K2)	inactive: 0
SLC25A25 (UniProt Q6KCM7)	inactive: 0

Some of the entries so far, with bars between the fields.
Target | dose-dependent thermal stabilisation call
SLC39A11 (UniProt Q8N1S5) | inactive: 0
SMC5 (UniProt Q8IY18) | inactive: 0
SETMAR (UniProt Q53H47) | inactive: 0
SMG7 (UniProt Q92540) | inactive: 0
SNRPA (UniProt P09012) | inactive: 0
SNX14 (UniProt Q9Y5W7) | inactive: 0
SNAPC5 (UniProt O75971) | inactive: 0
SLC25A5 (UniProt P05141) | inactive: 0
